Here are results for 2 substances from publication PMC11744840.

Chains of the proteins cited; added tags and fusions are not shown.
UniProt P06733: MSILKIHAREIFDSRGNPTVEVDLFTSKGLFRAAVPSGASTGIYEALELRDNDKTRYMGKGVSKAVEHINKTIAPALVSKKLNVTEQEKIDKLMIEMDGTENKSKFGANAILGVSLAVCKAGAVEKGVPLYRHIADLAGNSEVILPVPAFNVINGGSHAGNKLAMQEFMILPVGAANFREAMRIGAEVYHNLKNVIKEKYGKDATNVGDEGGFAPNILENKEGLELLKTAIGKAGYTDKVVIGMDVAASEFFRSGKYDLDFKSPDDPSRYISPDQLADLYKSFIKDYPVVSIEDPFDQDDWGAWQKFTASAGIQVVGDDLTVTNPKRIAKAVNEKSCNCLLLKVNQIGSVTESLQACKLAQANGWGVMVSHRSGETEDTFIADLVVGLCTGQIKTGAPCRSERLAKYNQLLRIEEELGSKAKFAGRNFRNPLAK
UniProt Q9UBN7: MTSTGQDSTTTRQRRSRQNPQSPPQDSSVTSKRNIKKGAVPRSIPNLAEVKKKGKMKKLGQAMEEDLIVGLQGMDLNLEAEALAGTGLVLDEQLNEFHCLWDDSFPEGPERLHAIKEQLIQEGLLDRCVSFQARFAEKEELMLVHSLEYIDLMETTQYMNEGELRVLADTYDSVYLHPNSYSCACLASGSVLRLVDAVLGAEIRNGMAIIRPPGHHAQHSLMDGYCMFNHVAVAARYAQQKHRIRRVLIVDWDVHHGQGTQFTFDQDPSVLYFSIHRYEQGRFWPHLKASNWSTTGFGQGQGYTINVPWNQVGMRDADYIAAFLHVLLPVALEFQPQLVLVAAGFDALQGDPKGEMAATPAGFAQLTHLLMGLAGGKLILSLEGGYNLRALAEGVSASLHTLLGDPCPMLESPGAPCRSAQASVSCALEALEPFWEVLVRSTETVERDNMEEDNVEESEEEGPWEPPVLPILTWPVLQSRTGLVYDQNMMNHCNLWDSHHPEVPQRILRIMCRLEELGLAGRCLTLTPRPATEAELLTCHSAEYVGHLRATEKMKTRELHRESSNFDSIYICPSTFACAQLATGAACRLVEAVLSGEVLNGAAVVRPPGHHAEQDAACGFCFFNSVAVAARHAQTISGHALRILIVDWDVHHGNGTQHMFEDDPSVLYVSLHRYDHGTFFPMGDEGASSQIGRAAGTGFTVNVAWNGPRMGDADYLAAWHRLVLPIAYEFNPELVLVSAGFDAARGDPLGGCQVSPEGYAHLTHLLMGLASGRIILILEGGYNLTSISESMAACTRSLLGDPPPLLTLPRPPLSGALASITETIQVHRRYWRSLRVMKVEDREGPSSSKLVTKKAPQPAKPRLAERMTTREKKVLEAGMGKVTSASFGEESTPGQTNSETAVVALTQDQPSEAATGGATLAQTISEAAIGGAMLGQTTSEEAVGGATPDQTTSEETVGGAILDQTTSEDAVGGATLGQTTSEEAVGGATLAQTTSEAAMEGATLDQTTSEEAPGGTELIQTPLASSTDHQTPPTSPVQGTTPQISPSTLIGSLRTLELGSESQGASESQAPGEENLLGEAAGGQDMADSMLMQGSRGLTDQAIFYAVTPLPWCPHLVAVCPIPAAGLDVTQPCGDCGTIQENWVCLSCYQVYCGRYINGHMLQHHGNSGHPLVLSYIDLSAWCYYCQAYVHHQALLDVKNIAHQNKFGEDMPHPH
UniProt P63104: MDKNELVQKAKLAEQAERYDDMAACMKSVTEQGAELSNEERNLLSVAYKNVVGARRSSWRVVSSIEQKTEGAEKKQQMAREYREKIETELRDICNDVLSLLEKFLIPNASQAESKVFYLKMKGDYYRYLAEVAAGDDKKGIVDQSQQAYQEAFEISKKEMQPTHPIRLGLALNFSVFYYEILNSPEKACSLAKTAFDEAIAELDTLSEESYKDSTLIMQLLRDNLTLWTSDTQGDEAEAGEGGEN

In test [1] the target is Enolase 1 (ENO1), endogenous in multiple myeloma cells (human (endogenous in H929)) (UniProt P06733). Description: affinity purification with mass spectrometry; co-IP mass spectrometry assay in which HDAC6 peptides were identified; the bait is not given.
For test [2] the target is unchanged. The test can be described thus: affinity purification with mass spectrometry; total lysate of H929 cells, IP-ENO1 against IP-IgG, SDS-PAGE bands analysed by mass spectrometry.

No constants are given. Whether binding was seen depends on the method and setting. Binding seen in cells or lysates may run through a third protein. These calls come from enrichment with a bait or labelling near it, and not all partners need be listed.

On to “HDAC6, endogenous in multiple myeloma cells (from UniProt Q9UBN7 1-1215) (enzyme)”, for which the binding entry in test [1] is recorded as “binds”. “YWHAZ (14-3-3ζ), endogenous in multiple myeloma cells (from UniProt P63104 1-245)”: in test [2], the binding entry is on record as “binds”.
